± gives the standard deviation of the averaged measurements. Only a part is listed here, and it is no random draw.
Compound: Nc1ncnc2c1ncn2[C@@H]1O[C@H](COP(=O)(O)OP(=O)(O)NP(=O)(O)O)[C@@H](O)[C@H]1O [adenylyl imidodiphosphate]
Experiment: NP40-soluble protein abundance relative to vehicle (solubility fold change) (ratio); higher = more soluble protein in presence of AMP-PNP
Conditions: concentration: 10mM
Summary of the method: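 Values are fold changes against the detergent-processed vehicle, based on vsn-normalised intensities. Jurkat crude lysate was treated at eight concentrations from 0.1 to 10 mM (10 min at room temperature, then 3 min at 37 °C), solubilised with 0.8% NP40 and benzonase, ultracentrifuged and analysed by TMT-labelled LC-MS/MS over three independent experiments.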

Chains of the proteins cited; added tags and fusions are not shown. Lines headed by an entry give the natural chain unless they say otherwise; changes in a name come on top.
UniProt Q8TCS8: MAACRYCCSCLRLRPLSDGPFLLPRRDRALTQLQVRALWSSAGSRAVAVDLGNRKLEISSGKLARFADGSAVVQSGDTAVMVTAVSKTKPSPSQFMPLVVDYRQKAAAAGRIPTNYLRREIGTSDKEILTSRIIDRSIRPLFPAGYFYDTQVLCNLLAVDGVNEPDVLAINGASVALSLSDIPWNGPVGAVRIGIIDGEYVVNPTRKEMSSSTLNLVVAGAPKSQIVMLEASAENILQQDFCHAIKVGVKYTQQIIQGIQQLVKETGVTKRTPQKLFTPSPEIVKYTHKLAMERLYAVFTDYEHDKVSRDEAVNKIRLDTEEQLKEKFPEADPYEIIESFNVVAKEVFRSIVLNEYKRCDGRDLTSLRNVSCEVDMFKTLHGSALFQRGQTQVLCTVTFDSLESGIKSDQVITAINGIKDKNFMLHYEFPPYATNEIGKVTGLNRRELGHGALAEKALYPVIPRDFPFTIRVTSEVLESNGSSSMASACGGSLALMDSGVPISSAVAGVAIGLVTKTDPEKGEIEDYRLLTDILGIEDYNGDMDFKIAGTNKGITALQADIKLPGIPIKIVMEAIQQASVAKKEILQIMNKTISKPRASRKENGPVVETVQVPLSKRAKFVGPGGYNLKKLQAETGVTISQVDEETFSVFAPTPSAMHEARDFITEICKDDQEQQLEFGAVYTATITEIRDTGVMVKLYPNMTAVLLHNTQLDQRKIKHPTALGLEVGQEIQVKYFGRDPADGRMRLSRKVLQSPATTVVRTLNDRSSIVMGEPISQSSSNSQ
UniProt Q92734, whole entry: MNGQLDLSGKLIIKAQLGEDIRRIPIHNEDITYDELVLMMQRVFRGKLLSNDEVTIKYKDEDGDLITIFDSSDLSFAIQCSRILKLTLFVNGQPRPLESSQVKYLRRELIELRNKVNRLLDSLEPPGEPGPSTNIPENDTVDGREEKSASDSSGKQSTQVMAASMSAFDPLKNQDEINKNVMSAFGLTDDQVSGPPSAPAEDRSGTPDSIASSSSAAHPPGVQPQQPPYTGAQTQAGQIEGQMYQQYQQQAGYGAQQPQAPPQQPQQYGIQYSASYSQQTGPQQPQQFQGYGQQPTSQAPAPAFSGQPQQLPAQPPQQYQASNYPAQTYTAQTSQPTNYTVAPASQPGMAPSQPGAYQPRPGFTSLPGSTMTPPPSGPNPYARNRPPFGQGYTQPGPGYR
UniProt Q8NFV4: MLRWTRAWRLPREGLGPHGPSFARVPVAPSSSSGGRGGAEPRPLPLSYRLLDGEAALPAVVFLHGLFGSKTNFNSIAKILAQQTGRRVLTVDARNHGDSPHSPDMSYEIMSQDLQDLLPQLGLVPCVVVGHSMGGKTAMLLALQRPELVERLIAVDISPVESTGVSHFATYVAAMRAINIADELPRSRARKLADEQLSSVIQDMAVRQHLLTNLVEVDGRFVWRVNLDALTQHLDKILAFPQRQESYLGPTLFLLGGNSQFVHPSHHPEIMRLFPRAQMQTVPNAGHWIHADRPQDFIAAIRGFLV
UniProt Q8NEF9: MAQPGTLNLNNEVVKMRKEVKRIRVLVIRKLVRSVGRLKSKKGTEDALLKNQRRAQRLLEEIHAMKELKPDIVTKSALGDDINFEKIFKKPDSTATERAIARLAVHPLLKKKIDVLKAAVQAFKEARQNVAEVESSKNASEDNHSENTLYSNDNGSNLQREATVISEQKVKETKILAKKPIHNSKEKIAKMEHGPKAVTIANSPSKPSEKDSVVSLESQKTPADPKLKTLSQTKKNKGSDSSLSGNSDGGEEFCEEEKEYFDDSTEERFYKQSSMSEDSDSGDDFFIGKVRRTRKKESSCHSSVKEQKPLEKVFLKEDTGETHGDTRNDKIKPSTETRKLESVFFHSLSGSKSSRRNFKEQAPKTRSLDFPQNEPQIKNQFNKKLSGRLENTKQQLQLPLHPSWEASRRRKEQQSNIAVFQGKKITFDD
UniProt Q8NHP6: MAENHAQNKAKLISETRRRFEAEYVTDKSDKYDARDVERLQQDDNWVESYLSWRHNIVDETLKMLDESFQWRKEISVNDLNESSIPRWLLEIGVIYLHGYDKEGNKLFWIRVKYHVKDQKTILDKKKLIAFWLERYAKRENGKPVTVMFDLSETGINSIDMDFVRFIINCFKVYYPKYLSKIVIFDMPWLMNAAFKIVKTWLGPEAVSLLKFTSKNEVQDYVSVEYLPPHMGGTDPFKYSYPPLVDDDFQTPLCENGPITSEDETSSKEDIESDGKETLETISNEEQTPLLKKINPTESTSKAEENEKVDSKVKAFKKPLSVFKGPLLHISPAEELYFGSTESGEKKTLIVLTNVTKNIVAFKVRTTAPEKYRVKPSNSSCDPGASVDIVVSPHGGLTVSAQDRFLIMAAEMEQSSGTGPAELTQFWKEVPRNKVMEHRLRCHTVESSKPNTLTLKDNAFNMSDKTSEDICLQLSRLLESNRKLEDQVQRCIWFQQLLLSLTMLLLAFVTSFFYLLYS
UniProt Q8NCN4: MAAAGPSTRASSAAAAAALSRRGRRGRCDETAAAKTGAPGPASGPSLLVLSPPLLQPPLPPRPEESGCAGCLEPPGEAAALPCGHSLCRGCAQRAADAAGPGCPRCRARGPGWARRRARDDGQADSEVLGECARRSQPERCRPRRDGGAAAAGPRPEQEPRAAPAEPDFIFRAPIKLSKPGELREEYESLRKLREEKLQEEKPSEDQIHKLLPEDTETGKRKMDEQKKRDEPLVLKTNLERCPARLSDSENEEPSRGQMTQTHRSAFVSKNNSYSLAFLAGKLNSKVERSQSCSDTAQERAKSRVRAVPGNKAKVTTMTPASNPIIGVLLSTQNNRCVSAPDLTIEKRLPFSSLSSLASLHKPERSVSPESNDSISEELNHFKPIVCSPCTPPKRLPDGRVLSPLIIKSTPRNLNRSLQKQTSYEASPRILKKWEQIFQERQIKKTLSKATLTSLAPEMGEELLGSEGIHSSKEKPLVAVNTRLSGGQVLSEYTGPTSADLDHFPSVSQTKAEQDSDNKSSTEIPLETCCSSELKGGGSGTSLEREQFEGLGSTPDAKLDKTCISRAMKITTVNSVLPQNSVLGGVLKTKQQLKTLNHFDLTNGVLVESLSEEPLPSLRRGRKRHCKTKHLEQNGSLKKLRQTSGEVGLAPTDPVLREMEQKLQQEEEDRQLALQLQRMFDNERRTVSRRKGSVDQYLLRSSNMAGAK
UniProt Q8NHG8: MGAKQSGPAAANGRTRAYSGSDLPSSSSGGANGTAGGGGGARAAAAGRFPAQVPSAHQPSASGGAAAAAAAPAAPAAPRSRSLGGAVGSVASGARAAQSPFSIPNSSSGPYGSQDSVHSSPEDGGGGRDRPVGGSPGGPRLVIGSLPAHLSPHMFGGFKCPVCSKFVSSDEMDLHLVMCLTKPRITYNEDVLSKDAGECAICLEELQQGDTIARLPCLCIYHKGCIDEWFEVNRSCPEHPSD
UniProt Q8TB03: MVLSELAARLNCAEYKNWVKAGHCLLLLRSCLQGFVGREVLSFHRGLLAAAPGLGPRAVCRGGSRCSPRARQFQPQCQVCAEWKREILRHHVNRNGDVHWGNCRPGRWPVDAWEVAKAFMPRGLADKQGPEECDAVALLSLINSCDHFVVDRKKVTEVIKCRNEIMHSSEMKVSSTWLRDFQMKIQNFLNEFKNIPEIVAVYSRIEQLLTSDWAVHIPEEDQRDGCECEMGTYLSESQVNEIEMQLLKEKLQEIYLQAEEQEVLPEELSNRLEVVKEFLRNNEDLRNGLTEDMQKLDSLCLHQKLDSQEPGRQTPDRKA
UniProt Q8WUA2: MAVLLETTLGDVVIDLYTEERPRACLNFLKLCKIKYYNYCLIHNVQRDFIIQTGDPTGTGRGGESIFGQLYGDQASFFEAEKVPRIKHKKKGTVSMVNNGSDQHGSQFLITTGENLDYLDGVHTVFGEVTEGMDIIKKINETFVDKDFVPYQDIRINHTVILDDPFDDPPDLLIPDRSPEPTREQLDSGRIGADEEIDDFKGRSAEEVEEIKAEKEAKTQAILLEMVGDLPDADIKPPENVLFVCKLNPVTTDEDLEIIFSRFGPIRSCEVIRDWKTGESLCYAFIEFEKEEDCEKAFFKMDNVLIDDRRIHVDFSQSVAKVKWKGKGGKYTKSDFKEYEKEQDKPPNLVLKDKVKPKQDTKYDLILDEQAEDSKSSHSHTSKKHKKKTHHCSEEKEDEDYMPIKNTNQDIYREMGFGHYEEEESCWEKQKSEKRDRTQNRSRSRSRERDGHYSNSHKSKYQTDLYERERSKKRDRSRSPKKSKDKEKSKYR
UniProt Q92506: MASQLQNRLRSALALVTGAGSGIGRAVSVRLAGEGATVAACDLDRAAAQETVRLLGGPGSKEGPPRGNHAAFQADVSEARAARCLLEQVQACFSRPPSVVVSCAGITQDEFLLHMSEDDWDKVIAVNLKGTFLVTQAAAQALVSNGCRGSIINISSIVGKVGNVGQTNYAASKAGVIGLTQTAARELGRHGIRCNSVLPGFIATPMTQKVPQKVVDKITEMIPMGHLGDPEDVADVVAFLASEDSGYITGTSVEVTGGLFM
UniProt Q8TDQ7: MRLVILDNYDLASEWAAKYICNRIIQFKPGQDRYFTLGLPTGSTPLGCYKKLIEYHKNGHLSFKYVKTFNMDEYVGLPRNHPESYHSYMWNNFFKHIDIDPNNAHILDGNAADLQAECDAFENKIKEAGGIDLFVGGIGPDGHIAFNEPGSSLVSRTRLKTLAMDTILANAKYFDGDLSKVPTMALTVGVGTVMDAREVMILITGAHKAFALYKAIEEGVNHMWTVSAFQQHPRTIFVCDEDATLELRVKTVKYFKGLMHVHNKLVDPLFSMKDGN
UniProt Q8TEQ0: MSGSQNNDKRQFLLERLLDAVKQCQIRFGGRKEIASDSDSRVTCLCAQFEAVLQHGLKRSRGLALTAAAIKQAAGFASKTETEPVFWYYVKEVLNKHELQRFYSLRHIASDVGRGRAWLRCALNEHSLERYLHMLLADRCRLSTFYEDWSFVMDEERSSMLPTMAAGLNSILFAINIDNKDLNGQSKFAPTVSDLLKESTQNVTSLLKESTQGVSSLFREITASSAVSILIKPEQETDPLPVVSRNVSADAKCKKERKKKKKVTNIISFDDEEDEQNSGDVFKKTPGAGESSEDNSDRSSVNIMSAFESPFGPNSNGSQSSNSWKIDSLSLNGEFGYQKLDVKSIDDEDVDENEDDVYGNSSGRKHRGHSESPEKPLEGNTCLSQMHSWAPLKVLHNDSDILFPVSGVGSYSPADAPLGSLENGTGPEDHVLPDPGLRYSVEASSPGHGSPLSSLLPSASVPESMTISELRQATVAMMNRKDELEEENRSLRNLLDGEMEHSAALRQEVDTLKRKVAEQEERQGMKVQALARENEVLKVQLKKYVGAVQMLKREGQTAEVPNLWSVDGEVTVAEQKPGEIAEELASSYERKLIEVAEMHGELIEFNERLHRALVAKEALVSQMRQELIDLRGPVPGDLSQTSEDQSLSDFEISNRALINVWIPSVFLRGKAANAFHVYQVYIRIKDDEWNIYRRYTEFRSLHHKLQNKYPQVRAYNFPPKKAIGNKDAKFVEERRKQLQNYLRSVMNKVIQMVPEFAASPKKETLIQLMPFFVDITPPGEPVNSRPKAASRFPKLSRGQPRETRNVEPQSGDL
UniProt Q92759: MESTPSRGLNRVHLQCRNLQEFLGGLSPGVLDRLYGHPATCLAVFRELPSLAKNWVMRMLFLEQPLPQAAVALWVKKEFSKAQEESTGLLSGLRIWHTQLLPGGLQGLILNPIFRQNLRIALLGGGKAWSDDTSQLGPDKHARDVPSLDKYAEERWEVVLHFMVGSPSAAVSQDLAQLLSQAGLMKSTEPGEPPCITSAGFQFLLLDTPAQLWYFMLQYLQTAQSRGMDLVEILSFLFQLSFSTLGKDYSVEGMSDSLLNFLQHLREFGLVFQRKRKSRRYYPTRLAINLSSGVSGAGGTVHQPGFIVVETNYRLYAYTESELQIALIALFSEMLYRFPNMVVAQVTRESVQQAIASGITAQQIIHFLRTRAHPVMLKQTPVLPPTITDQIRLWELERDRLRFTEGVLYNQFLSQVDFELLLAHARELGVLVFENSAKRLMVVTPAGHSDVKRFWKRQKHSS
UniProt Q8WV93: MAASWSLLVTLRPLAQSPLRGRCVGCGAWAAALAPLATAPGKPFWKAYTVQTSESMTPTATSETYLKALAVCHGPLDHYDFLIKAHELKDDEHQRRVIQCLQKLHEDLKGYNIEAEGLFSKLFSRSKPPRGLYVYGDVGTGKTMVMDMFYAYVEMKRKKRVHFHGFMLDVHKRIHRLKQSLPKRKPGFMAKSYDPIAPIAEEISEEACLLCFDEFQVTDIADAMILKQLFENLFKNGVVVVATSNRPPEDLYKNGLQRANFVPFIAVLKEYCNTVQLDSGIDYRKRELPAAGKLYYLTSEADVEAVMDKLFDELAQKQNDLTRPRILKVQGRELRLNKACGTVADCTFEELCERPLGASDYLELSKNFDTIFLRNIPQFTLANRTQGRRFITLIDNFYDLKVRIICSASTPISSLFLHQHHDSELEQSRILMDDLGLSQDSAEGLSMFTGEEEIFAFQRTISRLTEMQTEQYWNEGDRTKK

UniProt Q8TCT7 and related entries and CORO2A (UniProt Q92828) are within error of each other in NP40-soluble protein abundance: 1.04 ± 0.032 for the first, 1.02 ± 0.085 for the second.

UniProt Q8NDI1-2|Q8NDI1-3 and PNPT1 (UniProt Q8TCS8) are the same in NP40-soluble protein abundance: 0.922 ± 0.032 for the first, 0.922 ± 0.023 for the second.

UniProt Q92734 and related entries and ABHD11 (UniProt Q8NFV4) are within error of each other in NP40-soluble protein abundance: 1.02 ± 0.011 for the first, 1.01 ± 0.048 for the second.

Going from UniProt Q92619 to UniProt Q92784 and related entries, the NP40-soluble protein abundance falls from 1.08 ± 0.086 to 0.983 ± 0.0094.

Going from SRFBP1 (UniProt Q8NEF9) to PDCD6IP (UniProt Q8WUM4), the NP40-soluble protein abundance falls from 1.06 ± 0.025 to 0.988 ± 0.014.

UniProt Q8WZA9 and UniProt Q92859 and related entries are within error of each other in NP40-soluble protein abundance: 0.989 ± 0.067 for the first, 1.019 ± 0.0076 for the second.

First: MOSPD2 (UniProt Q8NHP6)
Second: UniProt Q8NDX5 and related entries
The NP40-soluble protein abundance of the first is lower: 0.91 ± 0.054 for the first, 1.1 ± 0.016 for the second.

First: RNF169 (UniProt Q8NCN4)
Second: PIEZO1 (UniProt Q92508)
The NP40-soluble protein abundance of the first is higher: 1.2 ± 0.062 for the first, 1 ± 0.014 for the second.

UniProt Q8TCC3 and related entries and UniProt Q92538 and related entries are within error of each other in NP40-soluble protein abundance: 1.02 ± 0.17 for the first, 0.903 ± 0.041 for the second.

UniProt Q8TEB1 and related entries and UniProt Q8TF05 and related entries are within error of each other in NP40-soluble protein abundance: 0.963 ± 0.076 for the first, 0.895 ± 0.041 for the second.

Going from ZNRF2 (UniProt Q8NHG8) to ENGASE (UniProt Q8NFI3), the NP40-soluble protein abundance falls from 0.988 ± 0.019 to 0.936 ± 0.023.

CXorf38 (UniProt Q8TB03) and NANP (UniProt Q8TBE9) are within error of each other in NP40-soluble protein abundance: 0.981 ± 0.042 for the first, 1.02 ± 0.033 for the second.

Compared with GPT2 (UniProt Q8TD30), PPIL4 (UniProt Q8WUA2) is higher in NP40-soluble protein abundance: 0.964 ± 0.036 for the first, 1.02 ± 0.018 for the second.

Compared with HSD17B8 (UniProt Q92506), RABGGTA (UniProt Q92696) is lower in NP40-soluble protein abundance: 1.075 ± 0.0054 for the first, 0.88 ± 0.027 for the second.

PLBD2 (UniProt Q8NHP8) and UniProt Q8TDQ7 and related entries are within error of each other in NP40-soluble protein abundance: 1.02 ± 0.044 for the first, 0.973 ± 0.022 for the second.

First: UniProt Q8TEQ0 and related entries
Second: UniProt Q92796-3
The NP40-soluble protein abundance of the first is lower: 0.953 ± 0.021 for the first, 1.04 ± 0.018 for the second.

Going from THAP4 (UniProt Q8WY91) to UniProt Q8ND04 and related entries, the NP40-soluble protein abundance rises from 0.923 ± 0.019 to 1.02 ± 0.06.

GTF2H4 (UniProt Q92759) and SNIP1 (UniProt Q8TAD8) are within error of each other in NP40-soluble protein abundance: 0.978 ± 0.035 for the first, 1.01 ± 0.014 for the second.

First: RNF214 (UniProt Q8ND24)
Second: MITD1 (UniProt Q8WV92)
The NP40-soluble protein abundance of the first is lower: 1.02 ± 0.04 for the first, 1.13 ± 0.029 for the second.

UniProt Q8WXE0 and related entries and UniProt Q8WV93 are within error of each other in NP40-soluble protein abundance: 1 ± 0.034 for the first, 1.09 ± 0.16 for the second.

Source: the supplement of paper PMC6411743
